No constants are given. Whether binding was seen depends on the method and setting. Some results given as binding are weak or reduced against the parent protein; the word gives no strength. For some assays here: Where a sequence is shown, tags or fusion partners need not be part of it. Values belong to the molecule of their own block, whether it stands above or below them.
Key:
[1] = molecular target: T1, MBP-Pex15 1-253 (S. cerevisiae) (UniProt Q08215); assay: pull-down; MBP-Pex15 C-terminal truncations with Pex1/Pex6 (Supplementary Figure 8A); conditions not told in the text shown; both purified
T1 sequence: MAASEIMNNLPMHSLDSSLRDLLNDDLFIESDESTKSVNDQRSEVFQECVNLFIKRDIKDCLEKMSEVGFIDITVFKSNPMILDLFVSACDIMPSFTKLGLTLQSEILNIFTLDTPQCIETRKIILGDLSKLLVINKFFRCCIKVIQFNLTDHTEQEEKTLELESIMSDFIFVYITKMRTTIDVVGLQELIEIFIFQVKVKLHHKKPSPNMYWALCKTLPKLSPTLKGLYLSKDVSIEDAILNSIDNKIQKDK

[2] = molecular target: T2, MBP-Pex15 1-309 (S. cerevisiae) (UniProt Q08215); assay: as above
T2 sequence: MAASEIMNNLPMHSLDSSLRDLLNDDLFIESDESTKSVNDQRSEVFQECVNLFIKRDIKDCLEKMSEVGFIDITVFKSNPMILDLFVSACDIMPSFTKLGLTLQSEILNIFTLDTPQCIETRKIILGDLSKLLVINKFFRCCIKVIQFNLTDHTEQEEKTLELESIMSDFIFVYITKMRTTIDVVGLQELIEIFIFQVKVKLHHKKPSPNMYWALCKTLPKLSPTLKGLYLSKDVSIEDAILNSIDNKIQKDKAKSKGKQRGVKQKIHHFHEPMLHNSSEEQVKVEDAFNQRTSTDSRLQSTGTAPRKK

[3] = molecular target: T3, MBP-Pex15 1-327-FLAG-His (S. cerevisiae) (UniProt Q08215); assay: pull-down; 1 uM MBP-Pex15 1-327-FLAG-His on magnetic amylose resin with 0.5 uM Pex1-Strep/His-Pex6 hexamer, His-Pex1-FLAG, His-Pex6-FLAG or 5 uM His-Pex6 1-215; 1 h, 4 °C, 60 mM HEPES pH 7.6, 150 mM NaCl, 150 mM KCl, 10% glycerol, 0.05% Tween-20, 10 mM MgCl2, 0.5 mM EDTA, 5 mM ATP; maltose elution; SYPRO-Ruby or anti-His blot; both purified
T3 sequence: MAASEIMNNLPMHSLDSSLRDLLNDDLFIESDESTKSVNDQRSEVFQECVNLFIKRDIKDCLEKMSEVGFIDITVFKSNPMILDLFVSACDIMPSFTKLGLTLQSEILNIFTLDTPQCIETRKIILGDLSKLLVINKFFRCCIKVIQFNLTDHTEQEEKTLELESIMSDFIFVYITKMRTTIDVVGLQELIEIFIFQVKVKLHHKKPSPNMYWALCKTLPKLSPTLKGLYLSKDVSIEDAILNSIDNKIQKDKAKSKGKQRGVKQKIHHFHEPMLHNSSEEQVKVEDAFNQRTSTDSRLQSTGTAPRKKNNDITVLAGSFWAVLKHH

[4] = molecular target: T3, MBP-Pex15 1-327-FLAG-His (S. cerevisiae); assay: pull-down; 1 μM MBP-Pex15 1-327-FLAG-His on magnetic amylose resin with 5 μM His-Pex6 1-215, 1 h, 4 °C, 60 mM HEPES pH 7.6, 150 mM NaCl, 150 mM KCl, 10% glycerol, 0.05% Tween-20, 10 mM MgCl2, 0.5 mM EDTA, 5 mM ATP; eluted with 20 mM maltose; SYPRO-Ruby or anti-His blot; both purified
[5] = molecular target: Pex1-WB2/Pex6-WB2 hexamer (Pex1-Strep E798Q / His-Pex6 E832Q) (S. cerevisiae) (UniProt P24004+P33760); assay: HDX-MS; 60 μM Pex15 incubated with 2 μM Pex1-WB2/Pex6-WB2 hexamer for 1 min, diluted into D2O buffer (60 mM HEPES pD 7.6, 50 mM NaCl, 50 mM KCl, 10% glycerol, 10 mM MgCl2, 0.5 mM EDTA, 5 mM ATP); exchange with 3 μM Pex15 1-309 and 100 nM Pex1/Pex6, quenched after 15 or 600 s; both purified
[6] = molecular target: Pex1-Strep/His-Pex6 hexamer, wild type (S. cerevisiae) (UniProt P24004+P33760); assay: pull-down; Pex1-Strep/His-Pex6 (1.2 μM) held on MagStrep magnetic beads, 21 μM Pex15 1-327-FLAG-His, ATP regeneration mix; washes in 60 mM HEPES pH 7.6, 150 mM NaCl, 150 mM KCl, 10% glycerol, 0.05% Tween-20, 10 mM MgCl2, 0.5 mM EDTA, 1 mM ATP; eluted with 2 mM biotin; both purified
[7] = molecular target: Pex1-Strep/His-Pex6 D2 pore-loop mutant (Pex1-F771A, Pex6-Y805A) (S. cerevisiae) (UniProt P24004+P33760); assay: as above
[8] = molecular target: Pex1-FLAG/His-Pex6 hexamer, wild type (S. cerevisiae) (UniProt P24004+P33760); assay: negative-stain EM reconstruction; 20 nM Pex1-FLAG/His-Pex6 mixed with 200 nM Pex15, 5 min on ice, 5 mM ATP; 3D reconstruction at 23.2 Å; both purified
His-Pex6 (S. cerevisiae) [9] = molecular target: T4, His-Pex6 (S. cerevisiae) (UniProt P33760); assay: as above
T4 sequence: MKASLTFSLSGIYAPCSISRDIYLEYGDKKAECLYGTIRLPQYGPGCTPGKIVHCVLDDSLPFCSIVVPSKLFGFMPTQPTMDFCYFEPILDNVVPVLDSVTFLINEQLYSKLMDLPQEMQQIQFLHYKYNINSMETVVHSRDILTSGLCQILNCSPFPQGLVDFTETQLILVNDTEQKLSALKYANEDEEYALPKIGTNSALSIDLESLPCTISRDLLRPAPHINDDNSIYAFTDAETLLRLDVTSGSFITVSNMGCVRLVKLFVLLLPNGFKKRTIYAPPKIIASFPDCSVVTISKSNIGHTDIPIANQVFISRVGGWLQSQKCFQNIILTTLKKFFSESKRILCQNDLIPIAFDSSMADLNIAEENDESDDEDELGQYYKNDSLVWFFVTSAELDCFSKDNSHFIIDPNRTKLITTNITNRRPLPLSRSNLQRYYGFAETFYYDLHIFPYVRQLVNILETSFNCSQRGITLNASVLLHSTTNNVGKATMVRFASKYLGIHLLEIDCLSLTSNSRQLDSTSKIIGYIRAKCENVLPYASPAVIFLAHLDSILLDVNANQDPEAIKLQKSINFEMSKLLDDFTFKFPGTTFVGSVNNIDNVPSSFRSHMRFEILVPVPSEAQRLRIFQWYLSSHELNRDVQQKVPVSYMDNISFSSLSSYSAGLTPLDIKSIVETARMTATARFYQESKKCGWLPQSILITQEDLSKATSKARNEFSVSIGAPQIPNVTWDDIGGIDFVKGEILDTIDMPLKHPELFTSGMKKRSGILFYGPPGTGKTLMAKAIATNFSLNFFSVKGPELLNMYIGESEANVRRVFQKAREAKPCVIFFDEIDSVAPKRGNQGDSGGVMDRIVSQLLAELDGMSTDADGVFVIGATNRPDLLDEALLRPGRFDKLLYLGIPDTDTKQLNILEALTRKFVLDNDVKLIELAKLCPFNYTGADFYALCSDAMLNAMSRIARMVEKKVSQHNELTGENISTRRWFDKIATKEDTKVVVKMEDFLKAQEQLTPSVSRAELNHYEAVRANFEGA

His-Pex6 (S. cerevisiae) [10] = molecular target: T4, His-Pex6 (S. cerevisiae); assay: tandem affinity co-purification (Ni-NTA, anti-FLAG) + SEC; Pex1-FLAG and His-Pex6 co-expressed in E. coli; Ni-NTA by His-Pex6, then anti-FLAG resin by Pex1-FLAG, with 1 mM ATP; hexamer separated on Superose6

B1: His-Pex6 1-215 (domain or fragment, UniProt P33760 1-215)
chain: MKASLTFSLSGIYAPCSISRDIYLEYGDKKAECLYGTIRLPQYGPGCTPGKIVHCVLDDSLPFCSIVVPSKLFGFMPTQPTMDFCYFEPILDNVVPVLDSVTFLINEQLYSKLMDLPQEMQQIQFLHYKYNINSMETVVHSRDILTSGLCQILNCSPFPQGLVDFTETQLILVNDTEQKLSALKYANEDEEYALPKIGTNSALSIDLESLPCTIS
- binding [3]: binds
- binding [4]: binds

B5: His-Pex1-FLAG (protein, UniProt P24004 1-1043)
chain: MTTTKRLKFENLRIQFSNAIVGNFLRLPHSIINVLESTNYAIQEFGIAVHSHNSDIPIVHLGWDGHDSGSSENVVLINPVLATVYDLNQKSPLVDLYIQRYDHTHLATEVYVTPETSDDWEIIDANAMRFQNGEILHQTRIVTPGETLICYLEGIVTKFKIDRVEPSMKSARITDGSLVVVAPKVNKTRLVKAEYGHSNKTILKNGAIQLLKKVILRSTVCKMDFPKDNLFVVYISDGAQLPSQKGYASIVKCSLRQSKKSDSDNKSVGIPSKKIGVFIKCDSQIPENHIALSSHLWDAFFTHPMNGAKIKLEFLQMNQANIISGRNATVNIKYFGKDVPTKSGDQYSKLLGGSLLTNNLILPTEQIIIEIKKGESEQQLCNLNEISNESVQWKVTQMGKEEVKDIIERHLPKHYHVKETGEVSRTSKDEDDFITVNSIKKEMVNYLTSPIIATPAIILDGKQGIGKTRLLKELINEVEKDHHIFVKYADCETLHETSNLDKTQKLIMEWCSFCYWYGPSLIVLDNVEALFGKPQANDGDPSNNGQWDNASKLLNFFINQVTKIFNKDNKRIRVLFSGKQKTQINPLLFDKHFVSETWSLRAPDKHARAKLLEYFFSKNQIMKLNRDLQFSDLSLETEGFSPLDLEIFTEKIFYDLQLERDCDNVVTRELFSKSLSAFTPSALRGVKLTKETNIKWGDIGALANAKDVLLETLEWPTKYEPIFVNCPLRLRSGILLYGYPGCGKTLLASAVAQQCGLNFISVKGPEILNKFIGASEQNIRELFERAQSVKPCILFFDEFDSIAPKRGHDSTGVTDRVVNQLLTQMDGAEGLDGVYILAATSRPDLIDSALLRPGRLDKSVICNIPTESERLDILQAIVNSKDKDTGQKKFALEKNADLKLIAEKTAGFSGADLQGLCYNAYLKSVHRWLSAADQSEVVPGNDNIEYFSINEHGRREENRLRLKTLLQQDVVHETKTSTSAASELTAVVTINDLLEACQETKPSISTSELVKLRGIYDRFQKDRNGEMPNGENSIDIGSRLSLM
- binding [3]: no binding (tested: 0.5 uM)

B6: Pex1-FLAG (protein, UniProt P24004 1-1043)
chain: B5 chain
- binding (His-Pex6 (S. cerevisiae) [10]): binds

Further lines, results first:

- binding [1]: binds
- binding [2]: binds
Molecule: Pex1-Strep/His-Pex6 hexamer, wild type (from UniProt P24004 1-1043; P33760 1-1030) (complex)

- binding [5]: binds
B2: Pex15 1-309 (domain or fragment, UniProt Q08215 1-309)
chain: T2 sequence

- binding [6]: binds
- binding [7]: binds
B3: Pex15 1-327-FLAG-His (domain or fragment, UniProt Q08215 1-327)
chain: T3 sequence

- binding [8]: binds
- binding (His-Pex6 (S. cerevisiae) [9]): binds
B4: Pex15 cytosolic domain (aa 1-327), as used for negative-stain EM (domain or fragment, S. cerevisiae, UniProt Q08215 1-327, looked up)
chain: T3 sequence
notes: Pex15, S. cerevisiae W303, cytosolic domain residues 1-327; also called Pex15 cytosolic portion; source: E. coli BL21*, purified (Ni-NTA, Superdex 200); not shown: His, C-terminal, cleaved
